PubChem BioAssay AID720505 | Drosophila RNAi Screening Center | 2013

Assay: 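Fly regulators or components of the CRAC channel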 (primary screen)
Cells: Drosophila S2R+ cells
Reagents: long dsRNA against Drosophila genes
Conditions: thapsigargin (2 µM) in calcium-free buffer to empty internal stores, then 2 mM calcium added back
Detection: 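Stores emptied by 2 µM thapsigargin without calcium, then 2 mM calcium re-added; fluo-4 fluorescence followed by FLIPR in 384-well plates, per-well averaged endpoint, raw; two screen passes, some wells retested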
Reading the numbers: calcium signal and retest calcium signal: higher = more calcium entry after store depletion
Rule for the call: 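About 1500 genes called as lowering calcium entry, by varying amounts, judged against per-plate control wells with STIM1 as positive and Rho1 as negative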
Calls: active = called as lowering calcium entry; inactive = not called
The deposit covers about 20,000 reagents; this is an unselected part of those with a known target gene and a result. In the full data, about 2,100 (10%) were called active. 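Raw plate signals without normalisation; calls rest on control-based scores that were not deposited; replicate 2 separates called from uncalled poorly.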 Entries without a mark were called inactive. The record does not give: the amount of reagent, the time to read-out.

What is on record for Fkbp39 (FK506-binding protein 39kD) [DRSC16667]?
calcium signal, replicate 1: 123; calcium signal, replicate 2: 133

With Or85e (Odorant receptor 85e) [DRSC16768], what does the deposit list?
calcium signal, replicate 1: 154; calcium signal, replicate 2: 105

For mRpS11 (mitochondrial ribosomal protein S11) [DRSC15732], what does the deposit list?
calcium signal, replicate 1: 191; calcium signal, replicate 2: 214

With Suv3 (Suv3 helicase) [DRSC12335], how do the results read?
calcium signal, replicate 1: 117; calcium signal, replicate 2: 108

What is on record for mfr (misfire) [DRSC10543]?
calcium signal, replicate 1: 92.3; calcium signal, replicate 2: 66.2

What did the screen give for CG43057 [DRSC01015]?
calcium signal, replicate 1: 152; calcium signal, replicate 2: 89.2

For CG6171 [DRSC15982], what was measured?
calcium signal, replicate 1: 114; calcium signal, replicate 2: 145

Which result is listed for armi (armitage) [DRSC08193]?
calcium signal, replicate 1: 123; calcium signal, replicate 2: 104

With CG1213 [DRSC12191], how do the results read?
calcium signal, replicate 1: 104; calcium signal, replicate 2: 207

With Spn31A (Serpin 31A) [DRSC02780], what does the deposit list?
calcium signal, replicate 1: 72.8; calcium signal, replicate 2: 99.7

For CG42594 [DRSC18053], what was measured?
calcium signal, replicate 1: 186; calcium signal, replicate 2: 86.8

What did the screen give for CG42594 [DRSC18408]?
calcium signal, replicate 1: 222; calcium signal, replicate 2: 87.7

With CG42594 [DRSC22978], how do the results read?
calcium signal, replicate 1: 121; calcium signal, replicate 2: 86.1

How did the screen score CG15200 [DRSC19647]?
calcium signal, replicate 1: 96.5; calcium signal, replicate 2: 82.6

Which result is listed for Sap130 (Sin3A-associated protein 130) [DRSC09680]?
calcium signal, replicate 1: 63.1; calcium signal, replicate 2: 93.3

What did the screen give for CG8360 [DRSC03085]?
calcium signal, replicate 1: 69.7; calcium signal, replicate 2: 147; retest calcium signal, replicate 1: 160; retest calcium signal, replicate 2: 80.8

For Apc (APC-like) [DRSC14114], how do the results read?
calcium signal, replicate 1: 148; calcium signal, replicate 2: 167

For Spf30 (Splicing factor 30) [DRSC11976], what does the deposit list?
calcium signal, replicate 1: 99.1; calcium signal, replicate 2: 187

With CG7465 [DRSC08592], what does the deposit list?
calcium signal, replicate 1: 58.1 (active); calcium signal, replicate 2: 58.2

With CG7465 [DRSC22320], how do the results read?
calcium signal, replicate 1: 96.5; calcium signal, replicate 2: 214

For CG4650 [DRSC02767], how do the results read?
calcium signal, replicate 1: 91.1; calcium signal, replicate 2: 96.5

Which result is listed for Pgant1 (Polypeptide N-Acetylgalactosaminyltransferase 1) [DRSC07095]?
calcium signal, replicate 1: 99.9; calcium signal, replicate 2: 210

For PGAP5 (Post-GPI attachment to proteins 5) [DRSC03089], how do the results read?
calcium signal, replicate 1: 147; calcium signal, replicate 2: 187

For Lamtor3 (Late endosomal/lysosomal adaptor, MAPK and MTOR activator 3) [DRSC02815], how do the results read?
calcium signal, replicate 1: 91.8; calcium signal, replicate 2: 142

With Ppt2 (Palmitoyl-protein Thioesterase 2) [DRSC02786], how do the results read?
calcium signal, replicate 1: 88.8; calcium signal, replicate 2: 106

What did the screen give for CG12069 [DRSC14470]?
calcium signal, replicate 1: 212; calcium signal, replicate 2: 171

How did the screen score Rpt3 (Regulatory particle triple-A ATPase 3) [DRSC20283]?
calcium signal, replicate 1: 60.9 (active); calcium signal, replicate 2: 83.3

What is on record for Shc (SHC-adaptor protein) [DRSC11284]?
calcium signal, replicate 1: 89.8; calcium signal, replicate 2: 105

What did the screen give for CG32267 [DRSC21561]?
calcium signal, replicate 1: 211; calcium signal, replicate 2: 96.5

What is on record for CG17472 [DRSC02622]?
calcium signal, replicate 1: 174; calcium signal, replicate 2: 97.5

What did the screen give for lncRNA:CR31044 (long non-coding RNA::CR31044) [DRSC22451]?
calcium signal, replicate 1: 121; calcium signal, replicate 2: 157

Which result is listed for CG17344 [DRSC02607]?
calcium signal, replicate 1: 140; calcium signal, replicate 2: 87.4

For Klp98A (Kinesin-like protein at 98A) [DRSC16724], what does the deposit list?
calcium signal, replicate 1: 66.7 (active); calcium signal, replicate 2: 67.1

For Klp98A (Kinesin-like protein at 98A) [DRSC21834], what was measured?
calcium signal, replicate 1: 57.4 (active); calcium signal, replicate 2: 179

How did the screen score nub (nubbin) [DRSC01260]?
calcium signal, replicate 1: 144; calcium signal, replicate 2: 81

For nub (nubbin) [DRSC02498], what does the deposit list?
calcium signal, replicate 1: 122; calcium signal, replicate 2: 137

With nub (nubbin) [DRSC02499], what does the deposit list?
calcium signal, replicate 1: 114; calcium signal, replicate 2: 103

For nub (nubbin) [DRSC03583], how do the results read?
calcium signal, replicate 1: 89.4; calcium signal, replicate 2: 99.3

What is on record for nub (nubbin) [DRSC23066]?
calcium signal, replicate 1: 47.5 (active); calcium signal, replicate 2: 67.8
